The target of test [1] is MUC1* growth factor receptor (cleaved MUC1 of cells) (human) (UniProt P15941). As to the kind of experiment: cited to FIG. 1 (sandwich ELISA). Background: ELISA stands for enzyme-linked immunosorbent assay.
For test [2] the target is unchanged. Kind of test: pull-down assays, ELISAs and nanoparticle binding experiments.

Sequences of proteins named here, by UniProt entry; tags and fusion partners are left off. A change or cut given only in a name is not applied to a line headed by its entry.
UniProt P15941: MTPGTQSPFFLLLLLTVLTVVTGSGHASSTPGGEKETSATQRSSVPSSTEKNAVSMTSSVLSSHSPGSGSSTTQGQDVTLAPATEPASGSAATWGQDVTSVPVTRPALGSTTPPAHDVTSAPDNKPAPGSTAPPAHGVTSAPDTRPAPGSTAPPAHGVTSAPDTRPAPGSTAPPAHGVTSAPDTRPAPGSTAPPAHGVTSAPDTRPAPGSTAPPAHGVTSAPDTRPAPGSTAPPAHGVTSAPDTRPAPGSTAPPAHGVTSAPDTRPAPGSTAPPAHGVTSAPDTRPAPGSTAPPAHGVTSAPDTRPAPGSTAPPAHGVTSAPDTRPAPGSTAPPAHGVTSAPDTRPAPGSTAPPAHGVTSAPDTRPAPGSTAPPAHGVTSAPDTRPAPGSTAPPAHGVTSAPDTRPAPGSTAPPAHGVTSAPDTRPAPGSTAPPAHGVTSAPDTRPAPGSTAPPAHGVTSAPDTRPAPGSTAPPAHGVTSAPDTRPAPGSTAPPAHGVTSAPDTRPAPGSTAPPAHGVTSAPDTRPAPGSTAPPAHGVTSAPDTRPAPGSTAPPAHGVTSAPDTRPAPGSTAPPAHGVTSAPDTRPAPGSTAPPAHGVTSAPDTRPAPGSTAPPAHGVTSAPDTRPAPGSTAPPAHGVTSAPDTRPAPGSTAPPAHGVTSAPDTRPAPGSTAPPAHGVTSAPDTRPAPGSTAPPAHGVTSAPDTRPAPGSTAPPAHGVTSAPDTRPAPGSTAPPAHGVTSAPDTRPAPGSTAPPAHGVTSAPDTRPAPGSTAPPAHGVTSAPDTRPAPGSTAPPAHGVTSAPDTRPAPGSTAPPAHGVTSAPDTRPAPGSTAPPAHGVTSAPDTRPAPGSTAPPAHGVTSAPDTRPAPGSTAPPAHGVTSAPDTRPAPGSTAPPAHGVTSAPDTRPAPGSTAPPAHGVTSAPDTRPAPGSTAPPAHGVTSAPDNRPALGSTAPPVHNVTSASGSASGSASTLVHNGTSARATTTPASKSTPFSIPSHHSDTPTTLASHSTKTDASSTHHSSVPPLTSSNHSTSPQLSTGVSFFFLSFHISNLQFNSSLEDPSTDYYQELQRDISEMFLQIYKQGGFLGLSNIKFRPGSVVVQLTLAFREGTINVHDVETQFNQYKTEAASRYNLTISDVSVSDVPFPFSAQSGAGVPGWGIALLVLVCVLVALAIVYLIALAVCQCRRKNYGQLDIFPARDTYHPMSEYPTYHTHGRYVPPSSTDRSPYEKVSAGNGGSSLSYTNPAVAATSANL
UniProt Q9Y5B8: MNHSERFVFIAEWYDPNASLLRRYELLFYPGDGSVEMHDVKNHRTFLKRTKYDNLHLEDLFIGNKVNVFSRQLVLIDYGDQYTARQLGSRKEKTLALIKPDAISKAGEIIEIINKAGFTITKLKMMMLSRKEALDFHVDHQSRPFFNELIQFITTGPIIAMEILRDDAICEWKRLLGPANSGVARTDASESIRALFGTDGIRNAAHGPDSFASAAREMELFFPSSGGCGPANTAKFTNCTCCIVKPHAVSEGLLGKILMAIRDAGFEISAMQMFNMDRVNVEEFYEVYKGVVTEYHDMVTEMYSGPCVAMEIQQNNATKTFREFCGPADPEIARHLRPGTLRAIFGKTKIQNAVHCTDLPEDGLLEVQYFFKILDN

These are yes or no findings as the source states them, for the method shown. For part of these data: In cells and extracts the contact can be indirect. Some binding calls cover weakened binding; strength is not graded here.

As to “Human NME7-AB, also known as NME7AB (recombinant, devoid of the DM10 domain) (from UniProt Q9Y5B8 92-376) (ligand)”, the binding entry in test [1] and in test [2] was “binds” each time.
In the case of “full-length human NME7 (42 kDa) (from UniProt Q9Y5B8 1-376) (ligand)”, the binding entry in test [2] was “binds”.

For the origin of these results see patent US20220259324A1 (MINERVA BIOTECHNOLOGIES, published 2022).
